In paper PMC7819943, “Rice protein-binding microarrays: a tool to detect cis-acting elements near promoter regions in rice”:
The list shows a part of the results.

These sequences were tested against T1, OsSMF1 (Oryza sativa, UniProt Q6ZLB0 1-436) (assay: protein-binding microarray (RPBM); PBS, 2% BSA, 51.3 ng/ul salmon testes DNA, 50 uM zinc acetate, 200 nM TF, 25 C, 1 h; high values mean tight binding). Settings: protein: recombinant; tags: N-terminal polyhistidine and DsRed monomer fusion (pET32a); chain copies: 2; label: CyDye5-dUTP incorporated in the synthesized complementary strand; 3' TTTTT single-stranded linker to array surface; dsDNA, one strand shown.
T1 sequence: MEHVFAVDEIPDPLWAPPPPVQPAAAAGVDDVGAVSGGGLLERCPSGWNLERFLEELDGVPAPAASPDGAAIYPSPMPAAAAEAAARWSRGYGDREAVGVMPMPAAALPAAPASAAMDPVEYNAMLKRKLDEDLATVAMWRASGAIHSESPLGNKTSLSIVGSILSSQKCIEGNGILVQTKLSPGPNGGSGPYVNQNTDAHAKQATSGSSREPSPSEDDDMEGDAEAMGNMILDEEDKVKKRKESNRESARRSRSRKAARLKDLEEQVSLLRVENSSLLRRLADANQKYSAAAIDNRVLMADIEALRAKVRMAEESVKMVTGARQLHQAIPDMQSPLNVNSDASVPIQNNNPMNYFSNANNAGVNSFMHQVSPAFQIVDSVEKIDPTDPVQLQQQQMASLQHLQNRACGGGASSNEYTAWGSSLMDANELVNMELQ
In short: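 The binding signal is fluorescence intensity per feature, in arbitrary units, read on an Axon 4000B scanner. Polyhistidine- and DsRed-tagged transcription factors (N-terminal fusions) from E. coli BL21-CodonPlus were purified on Ni–NTA and applied at 200 nM for 1 h at 25 °C to a double-stranded, BSA-blocked custom Agilent array in buffer with 50 µM zinc acetate.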

Sequence | binding signal
CCTCGCGCGGCGCGCAACGCACACGCTTCCCCTTCATCTCCGGAGTCACCTAGTGCAG | 24400 fluorescence intensity (a.u.)
ATAAATAGCTAGGGTTTTACGCCACGGCGCACGCCTCCACCGGAGTCACCTAGTGCAG | 3600 fluorescence intensity (a.u.)
TATGTATTATGTTTTAGGTGGAAGGTCTGAAAATGGGCCCCGGAGTCACCTAGTGCAG | 3690 fluorescence intensity (a.u.)
TCCCCTGCTCCCGCGTCATCGTCGCCGCCGCCGCCGCGTCCGGAGTCACCTAGTGCAG | 7100 fluorescence intensity (a.u.)
TATCAAATTATAGCGCAATTAGGCTCAAAAGATTCAGATTCGGAGTCACCTAGTGCAG | 26600 fluorescence intensity (a.u.)
GGTTCCTGTTTTAGCATTACGATATTTGGGTTGGTTTACTCGGAGTCACCTAGTGCAG | 3270 fluorescence intensity (a.u.)
CTCGCATCACACTAGCTTGACACGCCCTCAATTTCTCACACGGAGTCACCTAGTGCAG | 3450 fluorescence intensity (a.u.)
AGATACTTTGAACTTCAAGATGTCGTCGTCAGTTTCCGTGCGGAGTCACCTAGTGCAG | 3630 fluorescence intensity (a.u.)
ATCAAGATGTACACACTCCATGATTCATCAACTTGGTACCCGGAGTCACCTAGTGCAG | 5620 fluorescence intensity (a.u.)
ATATGTTCGGTATGATCAAACGTCAGCTAAAATGTTTGTTCGGAGTCACCTAGTGCAG | 3150 fluorescence intensity (a.u.)
TTGCTTACAATGCCACATCACAGCCACCACGTAGGATAATCGGAGTCACCTAGTGCAG | 9320 fluorescence intensity (a.u.)
GTTGACCGTCTACGTGGCATTCCACGTAGGCAGCTCATTTCGGAGTCACCTAGTGCAG | 16600 fluorescence intensity (a.u.)
ACGCCTCATCTCCAGTCCACGGCTCAACGTCCACGCACACCGGAGTCACCTAGTGCAG | 3490 fluorescence intensity (a.u.)
AGACTGTAGGACCTGCTGACGTGGTGTAAACCGCTCAGGGCGGAGTCACCTAGTGCAG | 20300 fluorescence intensity (a.u.)
CATGTAGGGATTGCATGAACACGCCATTGCCGGCTTCCGCCGGAGTCACCTAGTGCAG | 3500 fluorescence intensity (a.u.)
TCCTCTGCAGTCACTTTACCGTGCATTTATCACATGTCAGCGGAGTCACCTAGTGCAG | 4670 fluorescence intensity (a.u.)
AGCAGCAGTGTTCATGTCACCAATAATTTGGCTCATGCTTCGGAGTCACCTAGTGCAG | 3630 fluorescence intensity (a.u.)
GCAGCCGGCGGCAGCGAAGCATCTGTCGCGGGAGACACGTCGGAGTCACCTAGTGCAG | 4250 fluorescence intensity (a.u.)
CTCAAATGCACCAACAAGCAAATTTCTTGTACCCGTCATGCGGAGTCACCTAGTGCAG | 3690 fluorescence intensity (a.u.)
ATTGAAAAGGGTGGTAGAGTTAATTTGTTGTATGAGTTGGCGGAGTCACCTAGTGCAG | 4400 fluorescence intensity (a.u.)
CCACTGCCATTGCCTCGCTGGCGAGGACGTGTCGACGGGTCGGAGTCACCTAGTGCAG | 10500 fluorescence intensity (a.u.)
TGAGAAACGACAAAATCAGGCACGGAGTCAGACTCTGCCACGGAGTCACCTAGTGCAG | 3170 fluorescence intensity (a.u.)
GCCCGCACGTCAGTGGGCGTAGGTACAGTCGGGGCGGGTGCGGAGTCACCTAGTGCAG | 4380 fluorescence intensity (a.u.)
GGGTACTTAACCCTGATGTGGCTAAAGAGAAAAGCCGAATCGGAGTCACCTAGTGCAG | 3940 fluorescence intensity (a.u.)
TGTTTATAAACATTCCACGAATTAAACCCTGCAAAATTCCCGGAGTCACCTAGTGCAG | 21200 fluorescence intensity (a.u.)
AAGAAACCATCAAGCTAGCGAGGCCACCTCACCGGCCGCCCGGAGTCACCTAGTGCAG | 3320 fluorescence intensity (a.u.)
CAAGCAAAGTCCGTGCGTGTGGGCGTGGCTGACACCACGACGGAGTCACCTAGTGCAG | 3220 fluorescence intensity (a.u.)

A portion from the list above, as a working copy:
Sequence | binding signal
AGATACTTTGAACTTCAAGATGTCGTCGTCAGTTTCCGTGCGGAGTCACCTAGTGCAG | 3630 fluorescence intensity (a.u.)
ATCAAGATGTACACACTCCATGATTCATCAACTTGGTACCCGGAGTCACCTAGTGCAG | 5620 fluorescence intensity (a.u.)
ATATGTTCGGTATGATCAAACGTCAGCTAAAATGTTTGTTCGGAGTCACCTAGTGCAG | 3150 fluorescence intensity (a.u.)
TTGCTTACAATGCCACATCACAGCCACCACGTAGGATAATCGGAGTCACCTAGTGCAG | 9320 fluorescence intensity (a.u.)
GTTGACCGTCTACGTGGCATTCCACGTAGGCAGCTCATTTCGGAGTCACCTAGTGCAG | 16600 fluorescence intensity (a.u.)
ACGCCTCATCTCCAGTCCACGGCTCAACGTCCACGCACACCGGAGTCACCTAGTGCAG | 3490 fluorescence intensity (a.u.)
AGACTGTAGGACCTGCTGACGTGGTGTAAACCGCTCAGGGCGGAGTCACCTAGTGCAG | 20300 fluorescence intensity (a.u.)
CATGTAGGGATTGCATGAACACGCCATTGCCGGCTTCCGCCGGAGTCACCTAGTGCAG | 3500 fluorescence intensity (a.u.)
TCCTCTGCAGTCACTTTACCGTGCATTTATCACATGTCAGCGGAGTCACCTAGTGCAG | 4670 fluorescence intensity (a.u.)
AGCAGCAGTGTTCATGTCACCAATAATTTGGCTCATGCTTCGGAGTCACCTAGTGCAG | 3630 fluorescence intensity (a.u.)
GCAGCCGGCGGCAGCGAAGCATCTGTCGCGGGAGACACGTCGGAGTCACCTAGTGCAG | 4250 fluorescence intensity (a.u.)
CTCAAATGCACCAACAAGCAAATTTCTTGTACCCGTCATGCGGAGTCACCTAGTGCAG | 3690 fluorescence intensity (a.u.)
ATTGAAAAGGGTGGTAGAGTTAATTTGTTGTATGAGTTGGCGGAGTCACCTAGTGCAG | 4400 fluorescence intensity (a.u.)
CCACTGCCATTGCCTCGCTGGCGAGGACGTGTCGACGGGTCGGAGTCACCTAGTGCAG | 10500 fluorescence intensity (a.u.)
TGAGAAACGACAAAATCAGGCACGGAGTCAGACTCTGCCACGGAGTCACCTAGTGCAG | 3170 fluorescence intensity (a.u.)
GCCCGCACGTCAGTGGGCGTAGGTACAGTCGGGGCGGGTGCGGAGTCACCTAGTGCAG | 4380 fluorescence intensity (a.u.)
GGGTACTTAACCCTGATGTGGCTAAAGAGAAAAGCCGAATCGGAGTCACCTAGTGCAG | 3940 fluorescence intensity (a.u.)

Following part

Sequence | binding signal
GCAGGGCCGTTGGCTCGCCGTGCCGCCACGTCCCGGTGCCCGGAGTCACCTAGTGCAG | 4060 fluorescence intensity (a.u.)
TTTTCATGAGGTTGCCAAACTCAATTTGTCAGCATTAATTCGGAGTCACCTAGTGCAG | 3360 fluorescence intensity (a.u.)
TTTCTAGAGCACCTCTCACAAGCTCAGCATCTTCATGGTCCGGAGTCACCTAGTGCAG | 3820 fluorescence intensity (a.u.)
CGGTTCCTCCAGAGCGTAAGTGAATTGGGAAATTTCGGTGCGGAGTCACCTAGTGCAG | 3300 fluorescence intensity (a.u.)
ATATCTGCAGTAAGAGTCAGAGGTCCAAGACGTCCAAGTGCGGAGTCACCTAGTGCAG | 3170 fluorescence intensity (a.u.)
CTGGCGCTCAAGGCGGCGGCCGCCGCCATGGCCGACCCGACGGAGTCACCTAGTGCAG | 27400 fluorescence intensity (a.u.)
ACTTGATGACATCATACTGACATGGGCGTCCGATTCCTAGCGGAGTCACCTAGTGCAG | 13700 fluorescence intensity (a.u.)
TACACCGATCCATGATTGGTACATAGTACGCCGGTGAATCCGGAGTCACCTAGTGCAG | 15800 fluorescence intensity (a.u.)
ACCAGCAGTGCTTAAGTCCAGTCCACCACATCACAGTCGGCGGAGTCACCTAGTGCAG | 4170 fluorescence intensity (a.u.)
CGCGCGTGCCCGCGTAAACCAAGTCACGGATCCGCCGCCCCGGAGTCACCTAGTGCAG | 3540 fluorescence intensity (a.u.)
TGTTTGCCCACAGCTTGCTCGATGAAATGACTGGTTCATGCGGAGTCACCTAGTGCAG | 3220 fluorescence intensity (a.u.)
ATACCAAGAGTTCAAGAGAGCAGCTGGAGAAGACCTTCTTCGGAGTCACCTAGTGCAG | 4990 fluorescence intensity (a.u.)
TAATAGGGTGTGGCAAATCGTTATTTGCCATGTCATAATGCGGAGTCACCTAGTGCAG | 7010 fluorescence intensity (a.u.)
GTAGGTGACCCCGTCCGGCTCGAATCCCTGCTCCTCGAGCCGGAGTCACCTAGTGCAG | 25200 fluorescence intensity (a.u.)
AGAGGGGATGGGCCCACGTGTCAGGTTGCCCTCCCGTCCACGGAGTCACCTAGTGCAG | 7240 fluorescence intensity (a.u.)
CTCTTTTGTTAGCTACAACACGTGGCCAGCATCGACGTAGCGGAGTCACCTAGTGCAG | 6430 fluorescence intensity (a.u.)
GAGATCATGGTGATGAGGTCACTCAAGGGACACCCCAATGCGGAGTCACCTAGTGCAG | 3500 fluorescence intensity (a.u.)
GACTAGGAATACACGTGTTCATGTAGTAAGCTTTTAGTGCCGGAGTCACCTAGTGCAG | 11200 fluorescence intensity (a.u.)
CATATGCCATCTAATCATCCTTGTCTGATGTCATTTATTCCGGAGTCACCTAGTGCAG | 5870 fluorescence intensity (a.u.)
AAGAAGCGTGTTAACACGCACGCACGCGCTTCTTCCCTCCCGGAGTCACCTAGTGCAG | 3730 fluorescence intensity (a.u.)
AGGTTTTGTAGGGGTGGTGGACTGGGCCACGGCCCATGGGCGGAGTCACCTAGTGCAG | 3430 fluorescence intensity (a.u.)
TAGAGAGAGAGGAGCTGACGTGGCCAAGCTGACATGTGGGCGGAGTCACCTAGTGCAG | 9190 fluorescence intensity (a.u.)
ACAGTGACAGGTGTAAACTAGTGGCAGTGATGGTGGAGGTCGGAGTCACCTAGTGCAG | 3820 fluorescence intensity (a.u.)
CCTGAGCGGAGCTGGGACGTGGACGCGCCGCAAAAGCGAACGGAGTCACCTAGTGCAG | 6670 fluorescence intensity (a.u.)
GCGCTGCAAGCGCTCGCCGCTGACACCGGCGGCTTCCTGGCGGAGTCACCTAGTGCAG | 4670 fluorescence intensity (a.u.)
TGGAACTGTTACCCTGTAGCAGAATGCAGCGTTCTCGCGTCGGAGTCACCTAGTGCAG | 3160 fluorescence intensity (a.u.)
AGGGTGGTGACAGGTTTGTCAGGTCAATCAAAACCCGCCGCGGAGTCACCTAGTGCAG | 3180 fluorescence intensity (a.u.)
